No constants are given. Whether binding was seen depends on the method and setting. Some binding calls cover weakened binding; strength is not graded here. Where a sequence is shown, tags or fusion partners need not be part of it.
What was measured:
C3b [1] = target: C3b (UniProt P01024); assay: ELISA, C3b immobilised
C3b [2] = target: C3b (UniProt P01024); assay: ELISA, C3b immobilised, serial dilutions of MFHR1, anti-FH detection
[3] = target: C5 (complement component C5) (UniProt P01031); assay: ELISA, MFHR1 immobilised, C5 in solution
[4] = target: C5 (complement component C5) (UniProt P01031); assay: ELISA, MFHR1 (133 nM) immobilised, C5 at 10, 20, 40 µg/ml, monoclonal C5 antibody detection
C3b [5] = target: C3b (UniProt P01024); assay: ELISA on C3b coated plates, alone or with FHR1 or FHR5 from equimolar to 100-fold excess

Protein sequences, listed by entry. Tags and fused reporters are not part of them. Lines headed by an entry give the natural chain unless they say otherwise; changes in a name come on top.
UniProt P01024: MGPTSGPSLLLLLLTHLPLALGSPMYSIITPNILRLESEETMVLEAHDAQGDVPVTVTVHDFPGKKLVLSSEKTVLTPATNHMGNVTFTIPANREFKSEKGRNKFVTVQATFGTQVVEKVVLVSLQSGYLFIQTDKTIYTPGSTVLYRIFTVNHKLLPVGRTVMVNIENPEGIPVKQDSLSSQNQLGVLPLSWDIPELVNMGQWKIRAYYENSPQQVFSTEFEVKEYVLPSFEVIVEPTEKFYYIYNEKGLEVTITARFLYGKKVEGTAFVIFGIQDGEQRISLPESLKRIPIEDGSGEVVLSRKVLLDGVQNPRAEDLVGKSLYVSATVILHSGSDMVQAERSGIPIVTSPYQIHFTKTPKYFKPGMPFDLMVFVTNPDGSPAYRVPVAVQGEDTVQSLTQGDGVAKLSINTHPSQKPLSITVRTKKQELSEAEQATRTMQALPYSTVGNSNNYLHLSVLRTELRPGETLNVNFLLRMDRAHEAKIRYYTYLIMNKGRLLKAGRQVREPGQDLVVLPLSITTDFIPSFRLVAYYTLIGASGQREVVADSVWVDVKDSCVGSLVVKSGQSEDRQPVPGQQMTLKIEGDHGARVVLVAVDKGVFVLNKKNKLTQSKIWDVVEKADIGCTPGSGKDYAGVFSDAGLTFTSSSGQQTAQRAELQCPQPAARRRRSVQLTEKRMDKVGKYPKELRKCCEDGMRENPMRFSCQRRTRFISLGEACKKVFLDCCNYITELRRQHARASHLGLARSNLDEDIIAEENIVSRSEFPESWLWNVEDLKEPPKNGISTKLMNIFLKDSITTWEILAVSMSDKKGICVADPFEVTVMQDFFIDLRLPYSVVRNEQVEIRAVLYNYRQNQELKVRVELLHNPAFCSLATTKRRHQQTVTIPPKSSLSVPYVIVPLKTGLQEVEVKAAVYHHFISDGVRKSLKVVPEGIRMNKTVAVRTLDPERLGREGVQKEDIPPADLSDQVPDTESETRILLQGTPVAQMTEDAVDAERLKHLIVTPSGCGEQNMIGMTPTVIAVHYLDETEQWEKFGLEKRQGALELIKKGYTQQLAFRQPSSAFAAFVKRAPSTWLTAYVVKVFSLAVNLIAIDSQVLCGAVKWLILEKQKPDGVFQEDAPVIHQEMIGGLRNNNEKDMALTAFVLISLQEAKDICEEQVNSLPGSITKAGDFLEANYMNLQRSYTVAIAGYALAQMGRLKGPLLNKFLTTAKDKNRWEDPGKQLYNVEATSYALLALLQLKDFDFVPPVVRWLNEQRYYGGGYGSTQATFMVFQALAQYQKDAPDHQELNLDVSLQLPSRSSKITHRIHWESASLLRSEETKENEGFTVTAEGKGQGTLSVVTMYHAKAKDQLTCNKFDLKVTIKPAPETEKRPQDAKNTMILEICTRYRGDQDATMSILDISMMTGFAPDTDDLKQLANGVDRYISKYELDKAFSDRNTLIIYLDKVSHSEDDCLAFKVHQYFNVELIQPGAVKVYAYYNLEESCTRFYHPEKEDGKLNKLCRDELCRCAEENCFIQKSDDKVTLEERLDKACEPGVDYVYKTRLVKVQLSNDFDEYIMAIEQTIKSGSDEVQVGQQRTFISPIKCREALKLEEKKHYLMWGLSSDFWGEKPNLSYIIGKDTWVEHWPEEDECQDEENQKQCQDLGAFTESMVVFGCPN
UniProt P01031: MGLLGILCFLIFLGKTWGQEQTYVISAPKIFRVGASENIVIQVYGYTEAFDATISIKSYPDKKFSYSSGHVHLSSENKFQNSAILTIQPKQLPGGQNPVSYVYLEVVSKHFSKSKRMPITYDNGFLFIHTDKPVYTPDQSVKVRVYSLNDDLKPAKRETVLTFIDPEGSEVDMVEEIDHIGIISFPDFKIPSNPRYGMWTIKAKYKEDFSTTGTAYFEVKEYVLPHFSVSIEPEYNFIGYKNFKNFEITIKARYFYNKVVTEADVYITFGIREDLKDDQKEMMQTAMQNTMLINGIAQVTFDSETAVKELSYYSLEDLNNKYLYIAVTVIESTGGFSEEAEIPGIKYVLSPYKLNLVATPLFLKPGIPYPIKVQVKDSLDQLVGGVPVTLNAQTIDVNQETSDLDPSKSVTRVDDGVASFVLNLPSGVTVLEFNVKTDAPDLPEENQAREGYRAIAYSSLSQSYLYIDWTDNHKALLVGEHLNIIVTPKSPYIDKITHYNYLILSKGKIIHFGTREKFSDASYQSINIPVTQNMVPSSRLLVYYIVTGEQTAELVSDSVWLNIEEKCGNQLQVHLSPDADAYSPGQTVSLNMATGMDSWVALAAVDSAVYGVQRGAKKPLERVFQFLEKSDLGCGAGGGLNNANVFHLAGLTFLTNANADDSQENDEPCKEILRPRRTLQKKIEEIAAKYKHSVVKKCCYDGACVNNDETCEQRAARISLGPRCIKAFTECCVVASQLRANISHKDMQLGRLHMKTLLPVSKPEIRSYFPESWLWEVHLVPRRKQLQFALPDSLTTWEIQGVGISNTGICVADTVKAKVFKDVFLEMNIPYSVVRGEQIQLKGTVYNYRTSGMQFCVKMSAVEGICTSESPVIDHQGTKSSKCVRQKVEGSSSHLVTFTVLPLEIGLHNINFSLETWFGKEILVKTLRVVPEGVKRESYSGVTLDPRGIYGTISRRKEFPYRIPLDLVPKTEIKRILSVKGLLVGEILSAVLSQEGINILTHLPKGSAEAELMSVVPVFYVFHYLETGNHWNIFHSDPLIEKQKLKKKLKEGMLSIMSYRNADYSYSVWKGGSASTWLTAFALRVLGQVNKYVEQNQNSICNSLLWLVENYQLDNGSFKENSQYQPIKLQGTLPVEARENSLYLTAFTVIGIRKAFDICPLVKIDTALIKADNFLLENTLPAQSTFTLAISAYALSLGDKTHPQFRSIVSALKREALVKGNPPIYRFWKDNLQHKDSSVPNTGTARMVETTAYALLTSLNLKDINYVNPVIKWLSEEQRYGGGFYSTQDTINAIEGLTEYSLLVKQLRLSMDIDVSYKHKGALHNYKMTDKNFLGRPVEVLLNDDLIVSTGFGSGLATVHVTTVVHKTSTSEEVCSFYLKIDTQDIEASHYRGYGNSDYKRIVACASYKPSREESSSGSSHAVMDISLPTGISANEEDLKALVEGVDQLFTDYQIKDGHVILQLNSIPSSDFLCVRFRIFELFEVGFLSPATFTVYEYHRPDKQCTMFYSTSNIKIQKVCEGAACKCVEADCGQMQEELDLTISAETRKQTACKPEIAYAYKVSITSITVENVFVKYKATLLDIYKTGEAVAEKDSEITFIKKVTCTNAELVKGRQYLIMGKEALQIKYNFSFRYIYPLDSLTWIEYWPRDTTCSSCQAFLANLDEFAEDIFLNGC

Measured: binding

B1: MFHR1 (His-tag - FHR1(SCR1-2)-FH(SCR1-4)-FH(SCR19-20)) (protein)
chain: ADLGSHHHHHHHHHHDYDRSFCDFPKINHGILYDEEKYKPFSQVPTGEVFYYSCEYNFVSPSKSFWTRITCTEEGWSPTPKCLRLCFFPFVENGHSESSGQTHLEGDTVQIICNTGYRLQNNENNISCVERGWSTPPKCRSEDCNELPPRRNTEILTGSWSDQTYPEGTQAIYKCRPGYRSLGNVIMVCRKGEWVALNPLRKCQKRPCGHPGDTPFGTFTLTGGNVFEYGVKAVYTCNEGYQLLGEINYRECDTDGWTNDIPICEVVKCLPVTAPENGKIVSSAMEPDREYHFGQAVRFVCNSGYKIEGDEEMHCSDDGFWSKEKPKCVEISCKSPDVINGSPISQKIIYKENERFQYKCNMGYEYSERGDAVCTESGWRPLPSCEDSTGKCGPPPPIDNGDITSFPLSVYAPASSVEYQCQNLYQLEGNKRITCRNGQWSEPPKCLHPCVISREIMENYNIALRWTAKQKLYSRTGESVEFVCKRGYRLSSRSHTLRTTCWDGKLEYPTCAKR
binds: all assays above
